Measured values reported in publication PMC11933467.
No constants are given. Whether binding was seen depends on the method and setting. In cells and extracts the contact can be indirect. Some binding calls cover weakened binding; strength is not graded here. Where a sequence is shown, tags or fusion partners need not be part of it.

Target: T1, CG7611-GFP (Drosophila melanogaster) (UniProt Q7K0L4)
T1 sequence: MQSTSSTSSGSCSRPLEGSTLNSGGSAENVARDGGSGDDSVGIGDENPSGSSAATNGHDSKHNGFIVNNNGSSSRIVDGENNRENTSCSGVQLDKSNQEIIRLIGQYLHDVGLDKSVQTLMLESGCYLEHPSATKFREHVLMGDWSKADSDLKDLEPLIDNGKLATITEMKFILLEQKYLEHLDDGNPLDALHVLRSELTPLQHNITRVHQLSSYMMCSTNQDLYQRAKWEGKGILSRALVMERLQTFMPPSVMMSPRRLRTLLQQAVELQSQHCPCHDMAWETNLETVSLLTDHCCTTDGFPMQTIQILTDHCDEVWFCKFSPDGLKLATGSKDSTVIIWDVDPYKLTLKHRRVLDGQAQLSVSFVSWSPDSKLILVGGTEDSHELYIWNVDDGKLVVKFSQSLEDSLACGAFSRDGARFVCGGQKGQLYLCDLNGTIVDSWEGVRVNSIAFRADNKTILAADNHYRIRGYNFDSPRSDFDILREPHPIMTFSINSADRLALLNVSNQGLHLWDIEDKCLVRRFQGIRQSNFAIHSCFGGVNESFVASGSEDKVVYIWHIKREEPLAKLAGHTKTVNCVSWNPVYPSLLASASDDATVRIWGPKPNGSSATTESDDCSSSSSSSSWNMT
Test: co-IP; S2 cells transfected with CG7611-GFP and/or Muskelin-Flag; lysates immunoprecipitated with anti-Flag beads or anti-GFP; western blot

binding: binds
B1: RanBPM (protein, UniProt Q4Z8K6 1-962)
chain: MENVEEAPPLSSESNSNSNNSSASSSSHQLSQSGAMGAEIAPSTSRSHSHSPTPSPPVPASSHDQPHPDHPSPPLNASETEARENSPHDHSPTPTFHQTAPPPTTSSTAPQRDEREQQQQQEAPPLQQDQQENSPAQDQELHPLLDQQNQEYPAVHQDQQAEQNQELHHIEGLIRHRESQNPEEHPPQASLENRETLGREDTNQEPDEPQVRDPEIEPEAEPPPPLLLEDLDEQDSGSQDLNEQQPPLIIDANAIAETIDANAVERIDDYEDDDEEVDEEEEVVEDRVDRAGEVASVSGAQRLHSVAVLPRYSSASRAPRSSNNNNNNISNHNNNNNNSNSNSLSRRTRHFYSNNGSHFSNDMFPSHNPRSSTQTSSPRVGGRRHHSTPAASSNSPQHQGVDPLRLLYPNVNESETPLPRCWSPHDKCLSIGLSQNNLRVTYKGVGKQHSDAASVRTAYPIPSSCGLYYFEVRIISKGRNGYMGIGLTAQQFRMNRLPGWDKQSYGYHGDDGNSFSSSGNGQTYGPTFTTGDVIGCCVNFVNNTCFYTKNGVDLGIAFRDLPTKLYPTVGLQTPGEEVDANFGQEPFKFDKIVDMMKEMRSNVLRKIDRYPHLLETPENLMNRLVSTYLVHNAFSKTAEAFNGYTNQTFNEDLASIKTRQKIIKLILTGKMSQAIEHTLRSFPGLLENNKNLWFALKCRQFIEMINGADIENVNNKVTATTQTMPTNQTSVIQSTKTFKHSKSGSGNGNVNINQTQQQNNTAIPAVIKPQGGDRPDIKNMLVDDNSNKCVEHDSNSMDVEMEPCQSHSNGGDSSSNGNASAVRNSLDAIDEEMDVDVSPSSRNCGRVIEKILEFGKELSSMGQQLEKENLMTEEERQMLEDAFSLIAYSNPWSSPLGWLLCPSRRESVSTTLNSAILESLNFERRPPLEYLVAHASELIKVIGQHSLGEDAFITIDDVFPQN
